# Some of the results follow.
# Chains of the proteins cited; added tags and fusions are not shown. Lines headed by an entry give the natural chain unless they say otherwise; changes in a name come on top.
# UniProt Q8IUI8: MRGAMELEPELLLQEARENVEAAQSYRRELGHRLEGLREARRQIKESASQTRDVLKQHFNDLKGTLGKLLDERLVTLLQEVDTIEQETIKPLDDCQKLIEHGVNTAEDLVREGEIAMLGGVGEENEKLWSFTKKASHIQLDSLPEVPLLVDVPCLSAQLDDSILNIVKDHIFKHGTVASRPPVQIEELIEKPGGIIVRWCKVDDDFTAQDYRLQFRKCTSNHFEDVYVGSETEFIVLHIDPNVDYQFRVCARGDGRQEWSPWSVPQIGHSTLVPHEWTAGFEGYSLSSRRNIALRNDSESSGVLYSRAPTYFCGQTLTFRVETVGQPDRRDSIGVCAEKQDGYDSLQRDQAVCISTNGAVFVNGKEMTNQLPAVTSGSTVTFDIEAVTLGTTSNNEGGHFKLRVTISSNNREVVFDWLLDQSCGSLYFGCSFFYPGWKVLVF
# UniProt Q9NX76: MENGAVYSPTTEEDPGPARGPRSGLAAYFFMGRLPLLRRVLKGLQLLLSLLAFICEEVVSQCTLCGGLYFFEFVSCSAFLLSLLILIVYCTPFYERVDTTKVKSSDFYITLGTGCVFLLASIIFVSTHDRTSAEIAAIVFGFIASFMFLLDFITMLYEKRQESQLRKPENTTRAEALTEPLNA
# UniProt Q92905, whole entry, looked up: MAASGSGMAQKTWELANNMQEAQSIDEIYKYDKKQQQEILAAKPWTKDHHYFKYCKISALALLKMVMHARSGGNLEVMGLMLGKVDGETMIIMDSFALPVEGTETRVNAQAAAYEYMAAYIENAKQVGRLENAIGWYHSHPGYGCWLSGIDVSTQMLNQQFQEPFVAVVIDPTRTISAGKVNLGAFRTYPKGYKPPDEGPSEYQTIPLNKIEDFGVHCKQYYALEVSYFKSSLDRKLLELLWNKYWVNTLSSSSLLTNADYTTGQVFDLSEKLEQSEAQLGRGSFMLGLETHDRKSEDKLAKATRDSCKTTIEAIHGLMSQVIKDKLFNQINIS
# UniProt P46108: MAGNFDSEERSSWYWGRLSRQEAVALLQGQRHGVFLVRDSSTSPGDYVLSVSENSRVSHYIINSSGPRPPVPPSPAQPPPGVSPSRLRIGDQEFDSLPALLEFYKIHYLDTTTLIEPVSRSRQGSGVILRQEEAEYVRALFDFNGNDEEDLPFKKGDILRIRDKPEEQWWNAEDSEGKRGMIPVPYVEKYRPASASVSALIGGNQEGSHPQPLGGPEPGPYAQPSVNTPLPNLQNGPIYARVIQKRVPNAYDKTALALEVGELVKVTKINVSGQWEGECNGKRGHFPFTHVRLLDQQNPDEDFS
# UniProt P09497: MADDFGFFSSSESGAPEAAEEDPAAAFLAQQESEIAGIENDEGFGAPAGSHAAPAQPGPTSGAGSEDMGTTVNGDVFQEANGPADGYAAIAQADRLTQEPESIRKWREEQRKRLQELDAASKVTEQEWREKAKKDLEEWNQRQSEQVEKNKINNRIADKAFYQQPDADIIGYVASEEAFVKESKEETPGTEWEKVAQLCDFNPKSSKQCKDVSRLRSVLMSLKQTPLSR
# UniProt Q7LBR1: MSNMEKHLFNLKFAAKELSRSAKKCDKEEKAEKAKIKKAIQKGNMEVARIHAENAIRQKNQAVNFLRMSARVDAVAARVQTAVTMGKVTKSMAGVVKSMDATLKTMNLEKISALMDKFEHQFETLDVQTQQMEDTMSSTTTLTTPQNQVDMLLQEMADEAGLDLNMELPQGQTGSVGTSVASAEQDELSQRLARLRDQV
# UniProt P13987: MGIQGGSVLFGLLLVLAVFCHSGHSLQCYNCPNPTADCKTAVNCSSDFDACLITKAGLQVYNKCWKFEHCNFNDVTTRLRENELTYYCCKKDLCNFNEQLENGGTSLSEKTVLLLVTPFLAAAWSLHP
# UniProt P49454: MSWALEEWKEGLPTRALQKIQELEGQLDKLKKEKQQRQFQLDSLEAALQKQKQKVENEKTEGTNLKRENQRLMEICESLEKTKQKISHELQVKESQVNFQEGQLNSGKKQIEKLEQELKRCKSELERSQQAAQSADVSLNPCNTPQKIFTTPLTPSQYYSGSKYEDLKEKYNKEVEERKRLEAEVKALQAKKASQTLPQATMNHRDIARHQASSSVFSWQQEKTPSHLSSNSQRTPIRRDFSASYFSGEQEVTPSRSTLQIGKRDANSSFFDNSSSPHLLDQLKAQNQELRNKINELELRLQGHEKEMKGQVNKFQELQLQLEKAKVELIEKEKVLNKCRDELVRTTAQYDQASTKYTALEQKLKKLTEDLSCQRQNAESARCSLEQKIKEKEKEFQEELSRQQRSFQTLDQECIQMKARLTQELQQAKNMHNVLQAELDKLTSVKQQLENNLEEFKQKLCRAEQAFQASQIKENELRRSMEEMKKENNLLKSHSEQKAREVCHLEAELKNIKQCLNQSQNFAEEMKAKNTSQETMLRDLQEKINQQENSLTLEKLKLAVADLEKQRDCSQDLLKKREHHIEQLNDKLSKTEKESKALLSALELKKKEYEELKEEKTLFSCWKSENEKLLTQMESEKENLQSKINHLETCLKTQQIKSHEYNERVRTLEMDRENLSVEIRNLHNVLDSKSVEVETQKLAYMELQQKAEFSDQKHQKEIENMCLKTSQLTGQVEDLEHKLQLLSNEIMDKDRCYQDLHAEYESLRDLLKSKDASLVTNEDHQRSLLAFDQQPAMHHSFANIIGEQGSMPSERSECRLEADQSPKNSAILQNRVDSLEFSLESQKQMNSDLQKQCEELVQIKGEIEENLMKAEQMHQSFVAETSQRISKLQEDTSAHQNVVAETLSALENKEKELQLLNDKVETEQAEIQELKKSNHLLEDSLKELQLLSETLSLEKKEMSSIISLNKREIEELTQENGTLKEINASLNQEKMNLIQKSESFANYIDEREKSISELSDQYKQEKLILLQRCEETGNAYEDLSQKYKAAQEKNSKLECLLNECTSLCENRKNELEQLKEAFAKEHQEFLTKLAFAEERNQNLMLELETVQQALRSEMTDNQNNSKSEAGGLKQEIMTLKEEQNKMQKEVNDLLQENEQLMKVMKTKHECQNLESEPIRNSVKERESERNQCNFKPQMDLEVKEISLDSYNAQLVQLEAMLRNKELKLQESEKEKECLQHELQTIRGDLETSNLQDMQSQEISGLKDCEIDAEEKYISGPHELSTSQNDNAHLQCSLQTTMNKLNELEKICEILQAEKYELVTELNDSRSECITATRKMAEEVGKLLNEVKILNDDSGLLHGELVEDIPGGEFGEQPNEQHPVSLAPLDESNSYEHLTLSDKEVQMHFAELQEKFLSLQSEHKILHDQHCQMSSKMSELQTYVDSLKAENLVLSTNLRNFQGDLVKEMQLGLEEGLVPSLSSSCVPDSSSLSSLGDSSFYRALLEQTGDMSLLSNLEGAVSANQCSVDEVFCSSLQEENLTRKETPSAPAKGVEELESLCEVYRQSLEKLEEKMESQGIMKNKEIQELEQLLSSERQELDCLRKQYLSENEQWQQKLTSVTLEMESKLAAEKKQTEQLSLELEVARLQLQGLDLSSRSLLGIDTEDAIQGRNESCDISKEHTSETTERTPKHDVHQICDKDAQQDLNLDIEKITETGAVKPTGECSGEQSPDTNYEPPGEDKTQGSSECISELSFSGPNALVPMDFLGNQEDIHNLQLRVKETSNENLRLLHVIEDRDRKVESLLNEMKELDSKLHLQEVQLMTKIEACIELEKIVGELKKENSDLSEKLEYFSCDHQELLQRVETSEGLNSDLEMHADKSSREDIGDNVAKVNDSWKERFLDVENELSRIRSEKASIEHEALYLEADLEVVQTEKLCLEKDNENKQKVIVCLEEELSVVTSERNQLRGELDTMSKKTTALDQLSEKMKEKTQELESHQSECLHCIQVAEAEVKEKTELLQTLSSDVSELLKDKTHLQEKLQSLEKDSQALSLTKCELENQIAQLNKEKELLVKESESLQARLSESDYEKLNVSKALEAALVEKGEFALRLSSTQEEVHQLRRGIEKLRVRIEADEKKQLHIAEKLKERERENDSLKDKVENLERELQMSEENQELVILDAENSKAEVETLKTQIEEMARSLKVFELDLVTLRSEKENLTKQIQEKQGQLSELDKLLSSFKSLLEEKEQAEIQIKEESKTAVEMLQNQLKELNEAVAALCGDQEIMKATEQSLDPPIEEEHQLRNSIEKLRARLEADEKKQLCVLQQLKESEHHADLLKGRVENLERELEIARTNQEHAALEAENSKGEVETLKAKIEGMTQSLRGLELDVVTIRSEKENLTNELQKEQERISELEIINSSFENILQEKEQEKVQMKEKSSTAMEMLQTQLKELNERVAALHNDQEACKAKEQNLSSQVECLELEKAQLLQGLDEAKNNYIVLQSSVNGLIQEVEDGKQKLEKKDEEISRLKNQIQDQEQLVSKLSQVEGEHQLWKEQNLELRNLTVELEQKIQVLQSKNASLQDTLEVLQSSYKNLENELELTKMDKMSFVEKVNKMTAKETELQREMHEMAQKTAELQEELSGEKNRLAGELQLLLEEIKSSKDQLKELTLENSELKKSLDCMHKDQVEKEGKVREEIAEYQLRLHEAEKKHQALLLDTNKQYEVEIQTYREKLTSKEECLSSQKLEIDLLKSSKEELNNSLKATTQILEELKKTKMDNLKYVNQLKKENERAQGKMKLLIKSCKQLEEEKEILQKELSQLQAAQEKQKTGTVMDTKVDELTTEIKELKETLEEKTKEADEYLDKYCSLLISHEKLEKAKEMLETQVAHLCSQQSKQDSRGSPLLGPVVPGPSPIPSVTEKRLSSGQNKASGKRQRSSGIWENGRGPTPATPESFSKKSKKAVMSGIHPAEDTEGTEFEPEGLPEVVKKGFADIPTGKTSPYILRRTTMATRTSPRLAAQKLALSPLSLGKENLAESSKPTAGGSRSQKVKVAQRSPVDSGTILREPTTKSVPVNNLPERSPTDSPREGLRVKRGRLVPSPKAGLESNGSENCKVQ
# UniProt Q96MX0: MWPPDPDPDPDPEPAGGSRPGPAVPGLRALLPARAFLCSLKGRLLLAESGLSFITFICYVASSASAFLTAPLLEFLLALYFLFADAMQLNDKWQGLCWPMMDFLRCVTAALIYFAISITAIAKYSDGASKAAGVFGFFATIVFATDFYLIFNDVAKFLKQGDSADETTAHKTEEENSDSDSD
# UniProt Q96FZ7: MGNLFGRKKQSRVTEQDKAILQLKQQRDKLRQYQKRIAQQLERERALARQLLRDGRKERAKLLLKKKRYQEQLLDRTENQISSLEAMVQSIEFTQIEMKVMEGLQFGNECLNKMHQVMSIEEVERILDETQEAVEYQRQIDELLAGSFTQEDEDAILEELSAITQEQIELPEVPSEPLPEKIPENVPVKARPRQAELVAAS
# UniProt Q9Y259: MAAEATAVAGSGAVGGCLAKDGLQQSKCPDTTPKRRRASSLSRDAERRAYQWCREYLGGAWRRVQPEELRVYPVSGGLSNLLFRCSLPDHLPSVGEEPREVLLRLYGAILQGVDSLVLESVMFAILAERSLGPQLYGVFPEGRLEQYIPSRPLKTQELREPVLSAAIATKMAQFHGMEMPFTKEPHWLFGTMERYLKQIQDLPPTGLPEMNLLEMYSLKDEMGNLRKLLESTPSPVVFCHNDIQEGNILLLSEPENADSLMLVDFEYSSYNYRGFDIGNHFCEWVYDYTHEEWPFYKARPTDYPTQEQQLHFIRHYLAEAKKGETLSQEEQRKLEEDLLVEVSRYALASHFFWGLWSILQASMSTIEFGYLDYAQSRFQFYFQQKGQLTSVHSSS
# UniProt Q6IPU0: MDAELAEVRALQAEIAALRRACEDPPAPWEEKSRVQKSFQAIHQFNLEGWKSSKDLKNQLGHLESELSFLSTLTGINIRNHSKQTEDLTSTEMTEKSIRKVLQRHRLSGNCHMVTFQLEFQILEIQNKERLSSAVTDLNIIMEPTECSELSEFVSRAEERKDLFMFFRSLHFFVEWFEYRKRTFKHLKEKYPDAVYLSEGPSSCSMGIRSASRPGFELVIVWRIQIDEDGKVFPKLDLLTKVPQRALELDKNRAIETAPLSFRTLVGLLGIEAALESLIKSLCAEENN
# UniProt Q08257: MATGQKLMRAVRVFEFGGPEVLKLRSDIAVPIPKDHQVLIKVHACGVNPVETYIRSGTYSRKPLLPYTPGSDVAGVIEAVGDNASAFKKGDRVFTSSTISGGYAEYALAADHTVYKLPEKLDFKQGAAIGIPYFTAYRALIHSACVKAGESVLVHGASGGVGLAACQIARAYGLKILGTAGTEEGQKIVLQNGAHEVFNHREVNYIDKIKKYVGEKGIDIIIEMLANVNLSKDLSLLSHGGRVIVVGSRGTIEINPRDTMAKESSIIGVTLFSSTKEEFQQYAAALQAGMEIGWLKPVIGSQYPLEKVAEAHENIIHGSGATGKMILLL
# UniProt Q9H9Q2: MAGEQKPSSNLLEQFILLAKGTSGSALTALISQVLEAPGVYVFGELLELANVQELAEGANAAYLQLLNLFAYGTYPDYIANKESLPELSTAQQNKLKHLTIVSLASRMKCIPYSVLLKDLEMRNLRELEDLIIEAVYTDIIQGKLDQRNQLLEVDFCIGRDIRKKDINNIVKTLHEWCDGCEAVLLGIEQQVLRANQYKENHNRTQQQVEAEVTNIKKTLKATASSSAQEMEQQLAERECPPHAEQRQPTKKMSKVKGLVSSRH
# Compound: COc1ccc(Cn2ccc3cc(C)c(C(=O)NO)cc32)cc1
# Test: dose-dependent thermal stabilisation call (2D-TPP, DLPTP, 10% FDR) (binary (1 = stabilised)); higher = stabilised by the compound
# Settings: system: HL-60 intact cells; concentration range 0.04-10 µM
# Procedure: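 2D thermal proteome profiling in intact HL-60 cells treated with BRD-3811 (0, 0.04, 0.29, 2, 10 uM) for 90 min at 37 C, then heated 3 min at one of 12 temperatures (42-63.9 C). Soluble protein was quantified by TMT10 MS. The value is the DLPTP call of the paper: dose-dependent thermal stabilisation over all temperatures at 10% FDR (F-test of a dose-response against a flat model); one experiment, one call per tested protein.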
row,Target,dose-dependent thermal stabilisation call
1,CRELD1 (UniProt Q96HD1),inactive: 0
2,CRLF3 (UniProt Q8IUI8),inactive: 0
3,CREB1 (UniProt P16220),inactive: 0
4,COPS2 (UniProt P61201),inactive: 0
5,CMTM6 (UniProt Q9NX76),inactive: 0
6,COPS5 (UniProt Q92905),inactive: 0
7,CORO1B (UniProt Q9BR76),inactive: 0
8,CLPP (UniProt Q16740),inactive: 0
9,CRK (UniProt P46108),inactive: 0
10,CDIPT (UniProt O14735),inactive: 0
11,CLTB (UniProt P09497),inactive: 0
12,CHMP1B (UniProt Q7LBR1),inactive: 0
13,CD59 (UniProt P13987),inactive: 0
14,CPNE1 (UniProt Q99829),inactive: 0
15,CHD4 (UniProt Q14839),inactive: 0
16,CHEK1 (UniProt O14757),inactive: 0
17,CENPF (UniProt P49454),inactive: 0
18,COPG2 (UniProt Q9UBF2),inactive: 0

row,Target,dose-dependent thermal stabilisation call
1,CEP55 (UniProt Q53EZ4),inactive: 0
2,CMTM3 (UniProt Q96MX0),inactive: 0
3,CDK2 (UniProt P24941),inactive: 0
4,CHMP6 (UniProt Q96FZ7),inactive: 0
5,CDK8 (UniProt P49336),inactive: 0
6,COG2 (UniProt Q14746),inactive: 0
7,CHKB (UniProt Q9Y259),inactive: 0
8,CEBPZ (UniProt Q03701),inactive: 0
9,CHORDC1 (UniProt Q9UHD1),inactive: 0
10,CENPP (UniProt Q6IPU0),inactive: 0
11,COPS4 (UniProt Q9BT78),inactive: 0
12,CRYZ (UniProt Q08257),inactive: 0
13,CLN5 (UniProt O75503),inactive: 0
14,CLYBL (UniProt Q8N0X4),inactive: 0
15,CDC37L1 (UniProt Q7L3B6),inactive: 0
16,CDC45L (UniProt O75419),inactive: 0
17,CRELD2 (UniProt Q6UXH1),inactive: 0
18,COPS7B (UniProt Q9H9Q2),inactive: 0

# Some values from above:
# In dose-dependent thermal stabilisation call, CEBPZ (UniProt Q03701) shows inactive: 0
# In dose-dependent thermal stabilisation call, CHMP6 (UniProt Q96FZ7) shows inactive: 0

# From the supplement of paper PMC7666118
